In PubChem BioAssay AID212 (DTP/NCI, 2004):
The list does not hold the whole screen: it gathers tests that were run many times, whatever their T/C, doses with no T/C, and many T/C values between a quarter and a half above the control. Further doses and runs are listed elsewhere. T/C is the treated group as % of the vehicle group. Schedule codes are those of the source, read here as Q, the interval in days (D) or hours (H), X, the number of doses. Some T/C values carry the count of animals alive at the toxicity check (mostly the fifth day); without a count, all were alive then. Some entries hold several experiments; their values stand side by side, smallest first. Marks such as (2×) say how often a value occurs here. Some doses have a count of surviving animals in place of a T/C: the source holds a T/C of zero for them, seemingly a mark for toxic or unscored doses. Counts of survivors are from the toxicity check (mostly the fifth day) where no day follows; animals may have died later. For survival time, the PubChem record calls one and a half times the control and up active, and a quarter to a half above the control has no call in these data; cut-offs in other NCI protocols can differ.

Test system: BDF1 mice, colon carcinoma 38 sc, T/C %
Experiment: NCI In Vivo Anticancer Drug Screen. Data for tumor model Colon Carcinoma 38 (subcutaneous) in B6D2F1 (BDF1) mice
Procedure, shortened: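 Compound antitumor activity was assessed in mice carrying transplantable tumors. Survival or tumor size was recorded, and each value is the treated-group measurement divided by that of the vehicle-treated control group.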

In the case of COc1cccc2c1C(=O)c1c(O)c3c(c(O)c1C2=O)C[C@@](O)(C(=O)CO)C[C@@H]3OC1CC(N)C(O)C(C)O1 (stereo not given in full), the T/C (T/C endpoint: median survival time, dose: 2.0 mg/kg/injection, schedule: Q07DX002 (iv), vehicle: saline, higher T/C = longer survival) is reported as 126 % of control, the T/C (T/C endpoint: median survival time, dose: 3.2 mg/kg/injection, schedule: Q07DX002 (iv), vehicle: saline, higher T/C = longer survival) is reported as 134 % of control and the T/C (T/C endpoint: median survival time, dose: 3.3 mg/kg/injection, schedule: Q07DX002 (sc), vehicle: saline, higher T/C = longer survival) is reported as 142 % of control. For the same compound, the T/C (T/C endpoint: median survival time, dose: 4.0 mg/kg/injection, schedule: Q07DX003 (iv), vehicle: saline, higher T/C = longer survival) was 125 % of control, the T/C (T/C endpoint: median survival time, dose: 5.2 mg/kg/injection, schedule: Q07DX002 (sc), vehicle: saline, higher T/C = longer survival) was 145 % of control and the T/C (T/C endpoint: median survival time, dose: 6.0 mg/kg/injection, schedule: Q07DX003 (sc), vehicle: saline, higher T/C = longer survival) was 143 % of control. For the same compound, the T/C (T/C endpoint: median survival time, dose: 6.4 mg/kg/injection, schedule: Q07DX003 (iv), vehicle: saline, higher T/C = longer survival) was 127 % of control, the T/C (T/C endpoint: median survival time, dose: 8.4 mg/kg/injection, schedule: Q07DX002 (iv), vehicle: saline, higher T/C = longer survival) was 147 % of control [9 of 10 alive on day 44] and the T/C (T/C endpoint: median survival time, dose: 10.0 mg/kg/injection, schedule: Q07DX003 (iv), vehicle: saline, higher T/C = longer survival) was 148 % of control [9 of 10 alive on day 60]. For the same compound, the survivor count (T/C endpoint: median survival time, dose: 13.5 mg/kg/injection, schedule: Q07DX002 (iv), vehicle: saline, higher T/C = longer survival) was 6 of 10 on day 44, the survivor count (T/C endpoint: median survival time, dose: 13.5 mg/kg/injection, schedule: Q07DX003 (iv), vehicle: saline, higher T/C = longer survival) was 3 of 10 on day 60 and the survivor count (T/C endpoint: median survival time, dose: 13.6 mg/kg/injection, schedule: Q07DX002 (sc), vehicle: saline, higher T/C = longer survival) was 4 of 10 on day 44. For the same compound, the survivor count (T/C endpoint: median survival time, dose: 14.0 mg/kg/injection, schedule: Q07DX002 (iv), vehicle: saline, higher T/C = longer survival) was 2 of 10 on day 92 and 5 of 10 on day 81, the survivor count (T/C endpoint: median survival time, dose: 14.0 mg/kg/injection, schedule: Q07DX004 (iv), vehicle: saline, higher T/C = longer survival) was 2 of 10 on day 107 and the survivor count (T/C endpoint: median survival time, dose: 19.0 mg/kg/injection, schedule: Q07DX002 (sc), vehicle: saline, higher T/C = longer survival) was 5 of 10 on day 81. For the same compound, the survivor count (T/C endpoint: median survival time, dose: 21.0 mg/kg/injection, schedule: Q07DX003 (sc), vehicle: saline, higher T/C = longer survival) was 1 of 10 on day 63, the survivor count (T/C endpoint: median survival time, dose: 22.0 mg/kg/injection, schedule: Q07DX002 (sc), vehicle: saline, higher T/C = longer survival) was 0 of 10 on day 44 and the survivor count (T/C endpoint: median survival time, dose: 25.0 mg/kg/injection, schedule: Q07DX003 (iv), vehicle: saline, higher T/C = longer survival) was 0 of 10 on day 60. The T/C (T/C endpoint: median tumor weight (est.), dose: 0.5 mg/kg/injection, schedule: Q07DX002 (ip), vehicle: saline, evaluated on day 20, higher T/C = larger tumour) was 71, 85, 89, 137, 157 % of control (2×), the T/C (T/C endpoint: median tumor weight (est.), dose: 1.0 mg/kg/injection, schedule: Q07DX002 (ip), vehicle: saline, evaluated on day 20, higher T/C = larger tumour) was 43 [8 of 9 alive on day 20], 53, 81, 100, 106 [9 of 10 alive on day 20], 108, 109, 117, 133, 152 % of control [9 of 10 alive on day 20] and the T/C (T/C endpoint: median tumor weight (est.), dose: 1.0 mg/kg/injection, schedule: Q07DX002 (ip), vehicle: water, evaluated on day 20, higher T/C = larger tumour) was 55, 71, 100 (2×), 100 % of control [9 of 10 alive on day 20]. For the same compound, the T/C (T/C endpoint: median tumor weight (est.), dose: 1.5 mg/kg/injection, schedule: Q07DX002 (ip), vehicle: saline, evaluated on day 20, higher T/C = larger tumour) was 125 % of control, the T/C (T/C endpoint: median tumor weight (est.), dose: 2.0 mg/kg/injection, schedule: Q07DX002 (ip), vehicle: saline, evaluated on day 20, higher T/C = larger tumour) was 67 [9 of 10 alive on day 20], 70, 81, 85, 90, 93, 108, 109, 114, 126 % of control and the T/C (T/C endpoint: median tumor weight (est.), dose: 2.0 mg/kg/injection, schedule: Q07DX002 (ip), vehicle: water, evaluated on day 20, higher T/C = larger tumour) was 60, 61, 73, 92 (2×), 111, 113 % of control. The T/C (T/C endpoint: median tumor weight (est.), dose: 2.25 mg/kg/injection, schedule: Q07DX002 (ip), vehicle: water, evaluated on day 20, higher T/C = larger tumour) was 138 % of control, the T/C (T/C endpoint: median tumor weight (est.), dose: 4.0 mg/kg/injection, schedule: Q07DX002 (ip), vehicle: saline, evaluated on day 20, higher T/C = larger tumour) was 55, 56, 64, 69, 84, 88, 92 (2×), 97, 101 % of control and the T/C (T/C endpoint: median tumor weight (est.), dose: 4.0 mg/kg/injection, schedule: Q07DX002 (ip), vehicle: water, evaluated on day 20, higher T/C = larger tumour) was 18, 63 (2×), 71, 84, 98, 108 % of control. For the same compound, the T/C (T/C endpoint: median tumor weight (est.), dose: 4.5 mg/kg/injection, schedule: Q07DX002 (ip), vehicle: water, evaluated on day 20, higher T/C = larger tumour) was 141 % of control, the T/C (T/C endpoint: median tumor weight (est.), dose: 8.0 mg/kg/injection, schedule: Q07DX002 (ip), vehicle: saline, evaluated on day 20, higher T/C = larger tumour) was 14 [9 of 10 alive on day 20], 24, 27 [7 of 10 alive on day 20], 30, 79 [7 of 10 alive on day 20], 80, 105 % of control and the survivor count (T/C endpoint: median tumor weight (est.), dose: 8.0 mg/kg/injection, schedule: Q07DX002 (ip), vehicle: saline, higher T/C = larger tumour) was 3 of 10 on day 20 and 6 of 10 on day 20. The T/C (T/C endpoint: median tumor weight (est.), dose: 8.0 mg/kg/injection, schedule: Q07DX002 (ip), vehicle: water, evaluated on day 20, higher T/C = larger tumour) was 57, 62, 123 % of control, the survivor count (T/C endpoint: median tumor weight (est.), dose: 8.0 mg/kg/injection, schedule: Q07DX002 (ip), vehicle: water, higher T/C = larger tumour) was 1 of 10 on day 20, 5 of 10 on day 20, 6 of 10 on day 20 and the survivor count (T/C endpoint: median tumor weight (est.), dose: 10.0 mg/kg/injection, schedule: Q07DX002 (ip), vehicle: saline, higher T/C = larger tumour) was 3 of 10 on day 20. For the same compound, the survivor count (T/C endpoint: median tumor weight (est.), dose: 10.0 mg/kg/injection, schedule: Q07DX002 (ip), vehicle: water, higher T/C = larger tumour) was 2 of 10 on day 20, the survivor count (T/C endpoint: median tumor weight (est.), dose: 12.0 mg/kg/injection, schedule: Q07DX002 (ip), vehicle: saline, higher T/C = larger tumour) was 3 of 10 on day 20 and the survivor count (T/C endpoint: median tumor weight (est.), dose: 12.0 mg/kg/injection, schedule: Q07DX002 (ip), vehicle: water, higher T/C = larger tumour) was 1 of 10 on day 20 and 5 of 10 on day 20. For the same compound, the survivor count (T/C endpoint: median tumor weight (est.), dose: 16.0 mg/kg/injection, schedule: Q07DX002 (ip), vehicle: saline, higher T/C = larger tumour) was 0 of 10 on day 20, 2 of 10 on day 20, 5 of 10 on day 20, the T/C (T/C endpoint: median tumor weight (est.), dose: 16.0 mg/kg/injection, schedule: Q07DX002 (ip), vehicle: water, evaluated on day 20, higher T/C = larger tumour) was 17 and 70 % of control and the survivor count (T/C endpoint: median tumor weight (est.), dose: 16.0 mg/kg/injection, schedule: Q07DX002 (ip), vehicle: water, higher T/C = larger tumour) was 0 of 10 on day 20 and 2 of 10 on day 20. For the same compound, the survivor count (T/C endpoint: median tumor weight (est.), dose: 18.0 mg/kg/injection, schedule: Q07DX002 (ip), vehicle: water, higher T/C = larger tumour) was 0 of 10 on day 20, the survivor count (T/C endpoint: median tumor weight (est.), dose: 20.0 mg/kg/injection, schedule: Q07DX002 (ip), vehicle: saline, higher T/C = larger tumour) was 0 of 10 on day 20 and the survivor count (T/C endpoint: median tumor weight (est.), dose: 20.0 mg/kg/injection, schedule: Q07DX002 (ip), vehicle: water, higher T/C = larger tumour) was 0 of 10 on day 20 and 2 of 10 on day 20. The survivor count (T/C endpoint: median tumor weight (est.), dose: 24.0 mg/kg/injection, schedule: Q07DX002 (ip), vehicle: saline, higher T/C = larger tumour) was 0 of 10 on day 20 and 5 of 10 on day 20, the survivor count (T/C endpoint: median tumor weight (est.), dose: 24.0 mg/kg/injection, schedule: Q07DX002 (ip), vehicle: water, higher T/C = larger tumour) was 0 of 10 on day 20 and the survivor count (T/C endpoint: median tumor weight (est.), dose: 32.0 mg/kg/injection, schedule: Q07DX002 (ip), vehicle: water, higher T/C = larger tumour) was 0 of 10 on day 20. The survivor count (T/C endpoint: median tumor weight (est.), dose: 48.0 mg/kg/injection, schedule: Q07DX002 (ip), vehicle: water, higher T/C = larger tumour) was 0 of 10 on day 20.

With COc1cccc2c1C(=O)c1c(O)c3c(c(O)c1C2=O)C[C@@](O)(C(C)=O)C[C@@H]3OC1CC(N(Cc2ccccc2)Cc2ccccc2)C(O)C(C)O1 (stereo not given in full) the survivor count (T/C endpoint: median tumor weight (est.), dose: 54.0 mg/kg/injection, schedule: Q07DX002 (ip), vehicle: distilled water + Tween-80, higher T/C = larger tumour) was 1 of 10 on day 20, the survivor count (T/C endpoint: median tumor weight (est.), dose: 108.0 mg/kg/injection, schedule: Q07DX002 (ip), vehicle: distilled water + Tween-80, higher T/C = larger tumour) was 1 of 10 on day 20 and the survivor count (T/C endpoint: median tumor weight (est.), dose: 108.0 mg/kg/injection, schedule: Q07DX002 (ip), vehicle: saline with Tween-80, higher T/C = larger tumour) was 1 of 10 on day 20. The survivor count (T/C endpoint: median tumor weight (est.), dose: 216.0 mg/kg/injection, schedule: Q07DX002 (ip), vehicle: distilled water + Tween-80, higher T/C = larger tumour) was 0 of 10 on day 20 and the survivor count (T/C endpoint: median tumor weight (est.), dose: 216.0 mg/kg/injection, schedule: Q07DX002 (ip), vehicle: saline with Tween-80, higher T/C = larger tumour) was 1 of 10 on day 20 and 3 of 10 on day 20.

With C=C1C(C)C2C(Cc3ccccc3)NC(=O)C23OC(=O)/C=C\CC(=O)CCC(C)C/C=C/C3C1O (stereo not given) the survivor count (T/C endpoint: median tumor weight (est.), dose: 12.5 mg/kg/injection, schedule: Q07DX002 (ip), vehicle: Klucel (hydroxypropylcellulose) (HPC), higher T/C = larger tumour) was 5 of 10 on day 20, the survivor count (T/C endpoint: median tumor weight (est.), dose: 25.0 mg/kg/injection, schedule: Q07DX002 (ip), vehicle: Klucel (hydroxypropylcellulose) (HPC), higher T/C = larger tumour) was 2 of 9 on day 20 and the survivor count (T/C endpoint: median tumor weight (est.), dose: 50.0 mg/kg/injection, schedule: Q07DX002 (ip), vehicle: Klucel (hydroxypropylcellulose) (HPC), higher T/C = larger tumour) was 0 of 10 on day 20. For the same compound, the survivor count (T/C endpoint: median tumor weight (est.), dose: 100.0 mg/kg/injection, schedule: Q07DX002 (ip), vehicle: Klucel (hydroxypropylcellulose) (HPC), higher T/C = larger tumour) was 0 of 10 on day 20.
